Laboratory results: the supplement of paper PMC8728848
The list shows a part of the results.

Columns and labels:
Assay in all cases: glycan array binding signal (z-score within array); higher = stronger binding
Conditions in all cases: glycan notation: IUPAC condensed, linker removed
[1] = molecular target: Gal(b1-3)GlcNAc(b1-2)Man(a1-3)[Gal(b1-3)GlcNAc(b1-2)Man(a1-6)]Man(b1-4)GlcNAc(b1-4)[Fuc(a1-6)]GlcNAc
In short: (§1)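 Arrays were curated from the Consortium for Functional Glycomics database, 3228 in total, and kept only where the protein sequence was available. Binding is expressed as a within-array Z-score. This score was averaged across arrays of the same protein sequence at different concentrations or buffers and across linkers, and negative values can be read as non-binding.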

[2] = molecular target: Gal(b1-3)GlcNAc(b1-2)Man(a1-3)[GlcNAc(b1-4)][Gal(b1-3)GlcNAc(b1-2)Man(a1-6)]Man(b1-4)GlcNAc(b1-4)GlcNAc
In short: as §1

[3] = molecular target: Gal(b1-3)GlcNAc(b1-2)[Gal(b1-3)GlcNAc(b1-6)]Man(a1-6)[Gal(b1-3)GlcNAc(b1-2)Man(a1-3)]Man(b1-4)GlcNAc(b1-4)GlcNAc
In short: as §1

[4] = molecular target: Gal(b1-3)GlcNAc(b1-3)Gal(b1-3)GlcNAc
In short: as §1

[5] = molecular target: Gal(b1-3)GlcNAc(b1-3)Gal(b1-4)Glc
In short: as §1

[6] = molecular target: Gal(b1-3)GlcNAc(b1-3)Gal(b1-4)GlcNAc
In short: as §1

[7] = molecular target: Gal(b1-3)GlcNAc(b1-3)Gal(b1-4)GlcNAc(b1-2)Man(a1-3)[Gal(b1-3)GlcNAc(b1-3)Gal(b1-4)GlcNAc(b1-2)Man(a1-6)]Man(b1-4)GlcNAc(b1-4)GlcNAc
In short: as §1

[8] = molecular target: Gal(b1-3)GlcNAc(b1-3)Gal(b1-4)GlcNAc(b1-2)[Gal(b1-3)GlcNAc(b1-3)Gal(b1-4)GlcNAc(b1-6)]Man(a1-6)[Gal(b1-3)GlcNAc(b1-3)Gal(b1-4)GlcNAc(b1-2)Man(a1-3)]Man(b1-4)GlcNAc(b1-4)[Fuc(a1-6)]GlcNAc
In short: as §1

[9] = molecular target: Gal(b1-3)GlcNAc(b1-3)Gal(b1-4)GlcNAc(b1-3)Gal(b1-4)GlcNAc(b1-2)[Gal(b1-3)GlcNAc(b1-3)Gal(b1-4)GlcNAc(b1-3)Gal(b1-4)GlcNAc(b1-6)]Man(a1-6)[Gal(b1-3)GlcNAc(b1-3)Gal(b1-4)GlcNAc(b1-3)Gal(b1-4)GlcNAc(b1-2)Man(a1-3)]Man(b1-4)GlcNAc(b1-4)[Fuc(a1-6)]GlcNAc
In short: as §1

[10] = molecular target: Gal(b1-3)GlcNAc(b1-3)Gal(b1-4)GlcNAc(b1-6)[Gal(b1-3)GlcNAc(b1-3)]Gal(b1-4)Glc
In short: as §1

[11] = molecular target: Gal(b1-3)GlcNAc(b1-3)Gal(b1-4)[Fuc(a1-3)]GlcNAc
In short: as §1

[12] = molecular target: Gal(b1-3)GlcNAc(b1-3)Gal(b1-4)[Fuc(a1-3)]GlcNAc(b1-6)[Gal(b1-3)GlcNAc(b1-3)]Gal(b1-4)Glc
In short: as §1

[13] = molecular target: Gal(b1-3)GlcNAc(b1-3)GalNAc
In short: as §1

[14] = molecular target: Gal(b1-3)GlcNAc(b1-6)Gal(b1-4)GlcNAc
In short: as §1

[15] = molecular target: Gal(b1-3)GlcNAc(b1-6)GalNAc
In short: as §1

[16] = molecular target: Gal(b1-3)GlcNAc(b1-6)[Gal(b1-3)]GalNAc
In short: as §1

[17] = molecular target: Gal(b1-3)GlcNAc6S
In short: as §1

[18] = molecular target: Gal(b1-3)[Fuc(a1-4)]GlcNAc
In short: as §1

[19] = molecular target: Gal(b1-3)[Fuc(a1-4)]GlcNAc(b1-2)Man
In short: as §1

[20] = molecular target: Gal(b1-3)[Fuc(a1-4)]GlcNAc(b1-2)Man(a1-3)[Gal(b1-3)[Fuc(a1-4)]GlcNAc(b1-2)Man(a1-6)]Man(b1-4)GlcNAc(b1-4)[Fuc(a1-6)]GlcNAc
In short: as §1

[21] = molecular target: Gal(b1-3)[Fuc(a1-4)]GlcNAc(b1-3)Gal(b1-3)[Fuc(a1-4)]GlcNAc
In short: as §1

[22] = molecular target: Gal(b1-3)[Fuc(a1-4)]GlcNAc(b1-3)Gal(b1-4)[Fuc(a1-3)]GlcNAc
In short: as §1

[23] = molecular target: Gal(b1-3)[Fuc(a1-4)]GlcNAc(b1-6)GalNAc
In short: as §1

[24] = molecular target: Gal(b1-3)[GlcNAc(b1-6)]GalNAc
In short: as §1

[25] = molecular target: Gal(b1-3)[Neu5Ac(a2-6)]GalNAc
In short: as §1

[26] = molecular target: Gal(b1-3)[Neu5Ac(a2-6)]GlcNAc(b1-4)Gal(b1-4)Glc
In short: as §1

[27] = molecular target: Gal(b1-3)[Neu5Ac(b2-6)]GalNAc
In short: as §1

[28] = molecular target: Gal(b1-4)Gal
In short: as §1

[29] = molecular target: Gal(b1-4)GalNAc(a1-3)[Fuc(a1-2)]Gal(b1-4)GlcNAc
In short: as §1

[30] = molecular target: Gal(b1-4)GalNAc(b1-3)[Fuc(a1-2)]Gal(b1-4)GlcNAc
In short: as §1

B1: GS7807I-bvu-563-22-563 (Bacteroides vulgatus) (protein)
chain: IFSSCTDDFEKLNTSNIQVDPADLPFAAQCTEPMTYCYPPQQNMFQFWTNLTIDLYGGYFMTPNGNFTNGDMGENRGHSGGMYENYYLHIFNNTRRIIAQCDASGERGLSGVMRIVQAYGTLMTTDAYGPIPYSSILSGENEVYFEFDSQKDLYKAMLEDLSTAITDISAMGADEIAKLKSFDCWCNGDKDLWVKIANTMKLRMALRLSKRETEAGNAGMNLKAIATEAAQNTLATVNKDILIDKSLENEMWLMFNWGDCGFNANLVTIMSGTKDPRQPLYMTLNTGDIKNEAGTTTVAANSQYLGIRFASGLPAKPNSWGNFSGWIQGNNGSSYSMPLPIMKAAEAYFLLAEAKLRWDIGSESVKNLYENGIRVSMTNELAYRGAYAGIKEYPEGAVDAYINGTSTQIDYTDPIKAELSTPAVNKLSVKWDESASNEEKLERIITQKWLALFPLSTEGWAEQRRTGYPRFFPAFVNESNGAVNTEEGVRRVIYSSQAYDANAKGVEGGIKLLDEENSSKFGISGDKGGTHLWWDNADKGNF
[1]
  glycan array binding signal (z-score): 0.362
[2]
  glycan array binding signal (z-score): 3.75
[3]
  glycan array binding signal (z-score): 0.978
[4]
  glycan array binding signal (z-score): -0.81
[5]
  glycan array binding signal (z-score): -1.02
[6]
  glycan array binding signal (z-score): 0.449
[7]
  glycan array binding signal (z-score): 2.15
[8]
  glycan array binding signal (z-score): -0.647
[9]
  glycan array binding signal (z-score): 1.91
[10]
  glycan array binding signal (z-score): -0.329
[11]
  glycan array binding signal (z-score): -0.396
[12]
  glycan array binding signal (z-score): -0.309
[13]
  glycan array binding signal (z-score): 1.2
[14]
  glycan array binding signal (z-score): -0.658
[15]
  glycan array binding signal (z-score): -0.545
[16]
  glycan array binding signal (z-score): 0.482
[17]
  glycan array binding signal (z-score): 2.24
[18]
  glycan array binding signal (z-score): -0.08
[19]
  glycan array binding signal (z-score): 0.116
[20]
  glycan array binding signal (z-score): 2.12
[21]
  glycan array binding signal (z-score): -0.772
[22]
  glycan array binding signal (z-score): 0.127
[23]
  glycan array binding signal (z-score): -0.343
[24]
  glycan array binding signal (z-score): -0.484
[25]
  glycan array binding signal (z-score): 0.238
[26]
  glycan array binding signal (z-score): -0.151
[27]
  glycan array binding signal (z-score): -0.964
[28]
  glycan array binding signal (z-score): -0.487
[29]
  glycan array binding signal (z-score): 0.28
[30]
  glycan array binding signal (z-score): -0.561
